Experimental data published in the supplement of paper PMC8728848.
This is one part of the list.

Tests used:
Assay in all cases: glycan array binding signal (z-score within array); higher = stronger binding
Settings in all cases: glycan notation: IUPAC condensed, linker removed
[1] = target: GlcNAc(b1-3)Gal(b1-4)GlcNAc(b1-3)Gal(b1-4)GlcNAc(b1-2)Man(a1-3)[GlcNAc(b1-3)Gal(b1-4)GlcNAc(b1-3)Gal(b1-4)GlcNAc(b1-2)Man(a1-6)]Man(b1-4)GlcNAc(b1-4)GlcNAc
Outline: (§1)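 From the Consortium for Functional Glycomics database, 3228 arrays were curated, keeping only those whose protein sequence was available. Binding is given as a within-array Z-score averaged across arrays sharing a protein sequence and across linkers. Negative Z-scores can be read as non-binding.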

[2] = target: GlcNAc(b1-3)Gal(b1-4)GlcNAc(b1-3)Gal(b1-4)GlcNAc(b1-2)Man(a1-3)[GlcNAc(b1-3)Gal(b1-4)GlcNAc(b1-3)Gal(b1-4)GlcNAc(b1-2)Man(a1-6)]Man(b1-4)GlcNAc(b1-4)[Fuc(a1-6)]GlcNAc
Outline: as §1

[3] = target: GlcNAc(b1-3)Gal(b1-4)GlcNAc(b1-3)Gal(b1-4)GlcNAc(b1-2)[GlcNAc(b1-3)Gal(b1-4)GlcNAc(b1-3)Gal(b1-4)GlcNAc(b1-6)]Man(a1-6)[GlcNAc(b1-3)Gal(b1-4)GlcNAc(b1-3)Gal(b1-4)GlcNAc(b1-2)Man(a1-3)]Man(b1-4)GlcNAc(b1-4)[Fuc(a1-6)]GlcNAc
Outline: as §1

[4] = target: GlcNAc(b1-3)Gal(b1-4)GlcNAc(b1-3)Gal(b1-4)GlcNAc(b1-3)Gal(b1-4)GlcNAc(b1-2)Man(a1-3)[GlcNAc(b1-3)Gal(b1-4)GlcNAc(b1-3)Gal(b1-4)GlcNAc(b1-3)Gal(b1-4)GlcNAc(b1-2)Man(a1-6)]Man(b1-4)GlcNAc(b1-4)GlcNAc
Outline: as §1

[5] = target: GlcNAc(b1-3)Gal(b1-4)GlcNAc(b1-3)Gal(b1-4)GlcNAc(b1-3)Gal(b1-4)GlcNAc(b1-2)Man(a1-3)[GlcNAc(b1-3)Gal(b1-4)GlcNAc(b1-3)Gal(b1-4)GlcNAc(b1-3)Gal(b1-4)GlcNAc(b1-2)Man(a1-6)]Man(b1-4)GlcNAc(b1-4)[Fuc(a1-6)]GlcNAc
Outline: as §1

[6] = target: GlcNAc(b1-3)Gal(b1-4)GlcNAc(b1-3)Gal(b1-4)GlcNAc(b1-3)Gal(b1-4)GlcNAc(b1-2)[GlcNAc(b1-3)Gal(b1-4)GlcNAc(b1-3)Gal(b1-4)GlcNAc(b1-3)Gal(b1-4)GlcNAc(b1-6)]Man(a1-6)[GlcNAc(b1-3)Gal(b1-4)GlcNAc(b1-3)Gal(b1-4)GlcNAc(b1-3)Gal(b1-4)GlcNAc(b1-2)Man(a1-3)]Man(b1-4)GlcNAc(b1-4)[Fuc(a1-6)]GlcNAc
Outline: as §1

[7] = target: GlcNAc(b1-3)Gal(b1-4)GlcNAc(b1-3)Gal(b1-4)GlcNAc(b1-3)Gal(b1-4)GlcNAc(b1-3)Gal(b1-4)GlcNAc(b1-2)Man(a1-3)[GlcNAc(b1-3)Gal(b1-4)GlcNAc(b1-3)Gal(b1-4)GlcNAc(b1-3)Gal(b1-4)GlcNAc(b1-3)Gal(b1-4)GlcNAc(b1-2)Man(a1-6)]Man(b1-4)GlcNAc(b1-4)GlcNAc
Outline: as §1

[8] = target: GlcNAc(b1-3)Gal(b1-4)GlcNAc(b1-3)Gal(b1-4)GlcNAc(b1-3)Gal(b1-4)GlcNAc(b1-3)Gal(b1-4)GlcNAc(b1-2)Man(a1-3)[GlcNAc(b1-3)Gal(b1-4)GlcNAc(b1-3)Gal(b1-4)GlcNAc(b1-3)Gal(b1-4)GlcNAc(b1-3)Gal(b1-4)GlcNAc(b1-2)Man(a1-6)]Man(b1-4)GlcNAc(b1-4)[Fuc(a1-6)]GlcNAc
Outline: as §1

[9] = target: GlcNAc(b1-3)Gal(b1-4)GlcNAc(b1-3)Gal(b1-4)GlcNAc(b1-3)Gal(b1-4)GlcNAc(b1-3)Gal(b1-4)GlcNAc(b1-2)[GlcNAc(b1-3)Gal(b1-4)GlcNAc(b1-3)Gal(b1-4)GlcNAc(b1-3)Gal(b1-4)GlcNAc(b1-3)Gal(b1-4)GlcNAc(b1-6)]Man(a1-6)[GlcNAc(b1-3)Gal(b1-4)GlcNAc(b1-3)Gal(b1-4)GlcNAc(b1-3)Gal(b1-4)GlcNAc(b1-3)Gal(b1-4)GlcNAc(b1-2)Man(a1-3)]Man(b1-4)GlcNAc(b1-4)[Fuc(a1-6)]GlcNAc
Outline: as §1

[10] = target: GlcNAc(b1-3)Gal(b1-4)GlcNAc(b1-3)Gal(b1-4)GlcNAc(b1-3)GalNAc
Outline: as §1

[11] = target: GlcNAc(b1-3)Gal(b1-4)GlcNAc(b1-3)GalNAc
Outline: as §1

[12] = target: GlcNAc(b1-3)Gal(b1-4)GlcNAc(b1-3)[GlcNAc(b1-3)Gal(b1-4)GlcNAc(b1-3)]GalNAc
Outline: as §1

[13] = target: GlcNAc(b1-3)Gal(b1-4)GlcNAc(b1-6)[Gal(b1-3)]GalNAc
Outline: as §1

[14] = target: GlcNAc(b1-3)Gal(b1-4)GlcNAc(b1-6)[GlcNAc(b1-3)Gal(b1-3)]GalNAc
Outline: as §1

[15] = target: GlcNAc(b1-3)Gal(b1-4)GlcNAc(b1-6)[GlcNAc(b1-3)]Gal(b1-4)GlcNAc
Outline: as §1

GlcNAc(b1-3)GalNAc = target: GlcNAc(b1-3)GalNAc
Outline: as §1

GlcNAc(b1-3)Man = target: GlcNAc(b1-3)Man
Outline: as §1

[16] = target: GlcNAc(b1-3)[GlcNAc(b1-4)][GlcNAc(b1-6)]GlcNAc
Outline: as §1

[17] = target: GlcNAc(b1-3)[GlcNAc(b1-6)]Gal(b1-4)GlcNAc
Outline: as §1

[18] = target: GlcNAc(b1-3)[GlcNAc(b1-6)]GalNAc
Outline: as §1

[19] = target: GlcNAc(b1-4)Gal(b1-4)GlcNAc
Outline: as §1

GlcNAc(b1-4)GlcNAc = target: GlcNAc(b1-4)GlcNAc
Outline: as §1

[20] = target: GlcNAc(b1-4)GlcNAc(b1-4)GlcNAc
Outline: as §1

[21] = target: GlcNAc(b1-4)GlcNAc(b1-4)GlcNAc(b1-4)GlcNAc(b1-4)GlcNAc
Outline: as §1

[22] = target: GlcNAc(b1-4)GlcNAc(b1-4)GlcNAc(b1-4)GlcNAc(b1-4)GlcNAc(b1-4)GlcNAc
Outline: as §1

[23] = target: GlcNAc(b1-4)[GlcNAc(b1-6)]GalNAc
Outline: as §1

[24] = target: GlcNAc(b1-6)Gal(b1-4)GlcNAc
Outline: as §1

GlcNAc(b1-6)GalNAc = target: GlcNAc(b1-6)GalNAc
Outline: as §1

[25] = target: GlcNAc6S(b1-3)Gal(b1-4)GlcNAc
Outline: as §1

Kdn(a2-3)Gal(b1-3)GalNAc = target: Kdn(a2-3)Gal(b1-3)GalNAc
Outline: as §1

Kdn(a2-3)Gal(b1-3)GlcNAc = target: Kdn(a2-3)Gal(b1-3)GlcNAc
Outline: as §1

Kdn(a2-3)Gal(b1-4)Glc = target: Kdn(a2-3)Gal(b1-4)Glc
Outline: as §1

Kdn(a2-3)Gal(b1-4)GlcNAc = target: Kdn(a2-3)Gal(b1-4)GlcNAc
Outline: as §1

[26] = target: Kdn(a2-3)Gal(b1-4)[Fuc(a1-3)]GlcNAc
Outline: as §1

Kdn(a2-6)Gal(b1-4)GlcNAc = target: Kdn(a2-6)Gal(b1-4)GlcNAc
Outline: as §1

[27] = target: Man(a1-2)Man(a1-2)Man(a1-3)Man
Outline: as §1

[28] = target: Man(a1-2)Man(a1-2)Man(a1-6)[Man(a1-3)]Man
Outline: as §1

Man(a1-2)Man(a1-3)Man = target: Man(a1-2)Man(a1-3)Man
Outline: as §1

B1: SabA (Helicobacter pylori) (protein)
chain: MGSSHHHHHHSSGLVPRGSHMENLYFQGEDNGFFVSAGYQIGEAVQMVKNTGELKNLNEKYEQLSQYLNQVASLKQSIQNANNIELVNSSLNYLKSFTNNNYNSTTQSPIFNAVQAVITSVLGFWSLYAGNYFTFFVGKKVGDSGQPASVQGNPPFKTIIENCSGIENCAMDQTTYDKMKKLAEDLQAAQTNSATKGNNLCALSGCAATDSTSNPPNSTVSNALNLAQQLMDLIANTKTAMMWKNIVISGVSNTSGAITSTNYPTQYAVFNNIKAMIPILQQAVTLSQSNHTLSASLQAQATGSQTNPKFAKDIYTFAQNQKQVISYAQDIFNLFNSIPAEQYKYLEKAYLKIPNAGSTPTNPYRQVVNLNQEVQTIKNNVSYYGNRVDAALSVARDVYNLKSNQAEIVTAYNDAKTLSEEISKLPHNQVNTKDIVTLPYDKNAPAAGQSNYQINPEQQSNLNQALAAMSNNPFKKVGMISSQNNNGA
[1]
  glycan array binding signal (z-score): 0.315
[2]
  glycan array binding signal (z-score): 0.246
[3]
  glycan array binding signal (z-score): -0.149
[4]
  glycan array binding signal (z-score): -0.025
[5]
  glycan array binding signal (z-score): 0.629
[6]
  glycan array binding signal (z-score): -0.135
[7]
  glycan array binding signal (z-score): -0.132
[8]
  glycan array binding signal (z-score): 0.364
[9]
  glycan array binding signal (z-score): 0.605
[10]
  glycan array binding signal (z-score): -0.495
[11]
  glycan array binding signal (z-score): -0.732
[12]
  glycan array binding signal (z-score): -0.578
[13]
  glycan array binding signal (z-score): -0.39
[14]
  glycan array binding signal (z-score): -0.634
[15]
  glycan array binding signal (z-score): -1.04
GlcNAc(b1-3)GalNAc
  glycan array binding signal (z-score): 0.191
GlcNAc(b1-3)Man
  glycan array binding signal (z-score): 1.69
[16]
  glycan array binding signal (z-score): 0.253
[17]
  glycan array binding signal (z-score): -0.211
[18]
  glycan array binding signal (z-score): -0.594
[19]
  glycan array binding signal (z-score): -0.173
GlcNAc(b1-4)GlcNAc
  glycan array binding signal (z-score): -0.344
[20]
  glycan array binding signal (z-score): -0.052
[21]
  glycan array binding signal (z-score): -0.702
[22]
  glycan array binding signal (z-score): 0.285
[23]
  glycan array binding signal (z-score): -0.072
[24]
  glycan array binding signal (z-score): -0.325
GlcNAc(b1-6)GalNAc
  glycan array binding signal (z-score): 0.444
[25]
  glycan array binding signal (z-score): 0.452
Kdn(a2-3)Gal(b1-3)GalNAc
  glycan array binding signal (z-score): -0.318
Kdn(a2-3)Gal(b1-3)GlcNAc
  glycan array binding signal (z-score): -0.237
Kdn(a2-3)Gal(b1-4)Glc
  glycan array binding signal (z-score): -0.181
Kdn(a2-3)Gal(b1-4)GlcNAc
  glycan array binding signal (z-score): -0.622
[26]
  glycan array binding signal (z-score): 1.18
Kdn(a2-6)Gal(b1-4)GlcNAc
  glycan array binding signal (z-score): 0.023
[27]
  glycan array binding signal (z-score): -0.006
[28]
  glycan array binding signal (z-score): 0.041
Man(a1-2)Man(a1-3)Man
  glycan array binding signal (z-score): 0.442
